# Experimental data from patent US6903079B2, “Nucleoside compounds and compositions thereof” (Inotek Pharmaceuticals Corporation, priority 2000, dated 2005).
# Some entries share one result that the patent states for a list of compounds.
# What was measured:
# [1] = test system: mouse model of gut ischemia-reperfusion; test: Gut ischemia-reperfusion by ligation and release of superior mesenteric artery; FD4 gut permeability in everted gut sacks
# [2] = test system: rat model of middle cerebral artery occlusion/reperfusion; test: Middle cerebral artery occlusion/reperfusion; format: in vivo; settings: for mortality over 24 hours: 10 mg/kg i.v. 5 min before reperfusion, then 10 mg/kg/h infusion, vehicle >50%; for neurological deficit score: 24 h, on a scale of 1-4, vehicle 3-4
# Protocol: Occlusion lasted for 2 hours, followed by reperfusion for 24 hours. Infarct size was quantified with tetrazolium staining and survival and neurological scores were monitored. The compounds were administered at 10 mg/kg i.v. 5 min before the start of reperfusion in one group, and continued at a rate of 10 mg/kg/h infusion during the reperfusion. Vehicle-treated animals (control) developed a >50% mortality over 24 hours, whereas <10% of the animals died in the drug treated groups. The compounds tested reduced the size of brain infarction by 64±2 and 57±3%, respectively.
# [3] = test system: mouse model of local inflammation (DSS colitis); test: Colitis induced by oral dextran sulfate solution (DSS); format: in vivo; settings: oral gavage 10 mg/kg twice a day; for reduction of severity scores of intestinal inflammation: gross examination and histology; for mortality at 3 weeks: vehicle >60%
Compound,survival ([1]; 20 mg/kg i.v.),mortality over 24 hours [2],neurological deficit score [2],survival ([1]; 10 mg/kg i.v.),reduction of severity scores of intestinal inflammation [3],mortality at 3 weeks [3]
O=C1NCc2ccccc21 [Compound 1],> 90%,,,,,
CN(CCC(=O)Nc1cccc2c1CNC2=O)C(=O)C1OC(n2cnc3c(N)ncnc32)C(O)C1O (centres unmarked) [Compound 124],,< 10%,0-1,> 80%,at least 50%,< 10%
Nc1ncnc2c1ncn2C1OC(C(=O)N2CCN(CC(=O)Nc3cccc4c3CNC4=O)CC2)C(O)C1O (centres unmarked) [Compound 130],,< 10%,0-1,> 80%,at least 50%,< 10%
